Results: patent US20090275502A1, “METHODS AND COMPOSITIONS FOR ENHANCING DEVELOPMENTAL POTENTIAL OF OOCYTES AND PREIMPLANTATION EMBRYOS” (MOUNT SINAI HOSPITAL, priority 2005, published 2009)
For at least one compound, name, drawing or mass did not settle the structure.

Experiments:
FVB oocytes [1] = experiment: Apoptosis in cultured FVB oocytes; format: cell-based, mouse; settings: pyruvate in culture medium; 24 h in vitro
Method: Oocyte isolation and culture: Oocytes were collected after superovulation as described (Perez et al. 1997; Perez et al. 1999; Morita et al. 2000). Briefly, ovulated oocytes were denuded of cumulus cells by a 1-min incubation in 80 IU ml of hyaluronidase (Sigma, St. Louis, Mo.), followed by three washes with culture medium. All cultures were carried out in human tubal fluid (Irvine Scientific, Santa Ana, Calif.) supplemented with 0.5% BSA. The oocytes were maintained in 0.1 ml drops of culture medium under paraffin oil, and incubated at 37° C. in a humidified atmosphere of 5% CO2 and 95% air.
In-vitrofertilization and embryo culture: Female mice were superovulated as described above and cumulus-oocyte complexes from the indicated strains were mixed with capacitated sperm collected from adult male mice of the respective strain for in-vitro fertilization (Morita et al. 2000). […] Since zygotes progress to the blastocyst stage of development within 96 h and begin hatching, embryos were fixed at this time and stained with the DNA-binding dye Hoechst 33342 (Sigma) for light and fluorescence microscopic analysis of blastocyst cell number and quality. […] Analysis of DNA “comets” to generate quantitative data on the percent of undamaged versus damaged DNA was performed using the VisComet program (Impuls Computergestutzte Bildanalyse GmbH, Gilching, Germany). […]

FVB oocytes [2] = experiment: Reactive oxygen species (H2DCFDA) content of FVB oocytes; format: cell-based, mouse; settings: 10 mM, 6 h
Method: Reduced glutathione (GSH) content: Quantitation of cellular GSH was assayed by use of monochlorobimane (Molecular Probes, Eugene, Oreg.), a cell-permeant dye that becomes fluorescent upon conjugation to thiol groups (Nasr-Esfahani and Johnson 1992). One group of untreated oocytes served as a control for measuring baseline GSH levels, whereas two other groups of oocytes were treated with I mM hydrogen peroxide (Sigma). […] The average fluorescence intensities were tabulated on a per oocyte basis, and the data were then compiled per group. Reactive oxygen species: Formation of ROS was determined through the use of 2′,7′-dichlorodihydrofluorescein diacetate (H2DCFDA; Molecular Probes) as described (Yang et al. 1998). […] Endogenous ROS oxidize this polar form of the dye to a quantifiable fluorogenic compound (DCF). […] Total light intensity for each optical section and average light intensity for each oocyte were determined using the Delta Vision Software Analysis program. In order to determine baseline fluorescence, control oocytes (unstained) were incubated with an appropriate volume of vehicle (DMSO) prior to imaging. […]

[3] = test system: mitochondria isolated from FVB oocytes; experiment: Cytochrome c release (ELISA) from mitochondria of FVB oocytes; format: biochemical, mouse; settings: pre-incubated 2 h with 10 mM; mean ±SEM, n=4; untreated FVB 56±15%
FVB oocytes [4] = experiment: Electron microscopy of mitochondrial ultrastructure in FVB oocytes; format: cell-based, mouse; settings: 10 mM, 3 h
Method: Electron microscopy: Oocytes were cultured without or with pyruvate (10 mM) for 3 h prior to being fixed for EM tomography. The oocytes were embedded in agarose and prepared for tomography using conventional protocols for good structural preservation (Ricci et al. 2004). To survey the preservation quality of the oocytes, thin-sectioned materials (−80 nm) were examined using a JEOL 1200FX electron microscope. Three-dimensional reconstructions of portions of the cell containing mitochondria were generated using standard techniques (Perkins et al. 2003). Sections with a thickness between 300-500 nm were cut out, and stained for 30 min in 2% aqueous uranyl acetate, followed by 30 min in lead salts. Next, fiducial cues consisting of 20 nm colloidal gold particles were deposited on both sides of each section.
For each reconstruction, a series of images at regular tilt increments were collected with a JEOL 4000EX intermediate-voltage electron microscope operated at 400 kV. In order to limit anisotropic specimen thinning during image collection, the specimens were irradiated before initiating a tilt series. […] Tilt series were recorded at a magnification of 20,000× with an angular increment of 2° from −60° to +60° about an axis perpendicular to the optical axis of the microscope using a computer-controlled goniometer to achieve accurate increments at each angular step. […]

**Q.** Which “apoptosis in FVB oocytes” value (FVB oocytes [1]) does the source give for `CC(=O)C(=O)O` [pyruvate] here?
**A.** completely suppressed apoptosis

**Q.** And the “ROS content in comparison to untreated FVB oocytes” value (FVB oocytes [2])?
**A.** more than doubled

**Q.** What about the “cytochrome c released, of the total mitochondrial cytochrome c pool present prior to incubation” value [3] of the same compound?
**A.** 34±2%

**Q.** What about the “mitochondrial ultrastructure in FVB oocytes” value (FVB oocytes [4]) of the same compound?
**A.** the majority of mitochondria exhibited features similar to those of mitochondria in B6C3F1 oocytes
